Results published in article PMC8983766.
These are yes or no findings as the source states them, for the method shown. Binding seen in cells or lysates may run through a third protein. Some entries that bind do so weakly or less than the wild type.

The chains behind the UniProt entries cited, without tags or fusion partners. Where a name states a change or a piece, a line headed by the entry shows the natural chain unless it says otherwise.
UniProt O43474, whole entry: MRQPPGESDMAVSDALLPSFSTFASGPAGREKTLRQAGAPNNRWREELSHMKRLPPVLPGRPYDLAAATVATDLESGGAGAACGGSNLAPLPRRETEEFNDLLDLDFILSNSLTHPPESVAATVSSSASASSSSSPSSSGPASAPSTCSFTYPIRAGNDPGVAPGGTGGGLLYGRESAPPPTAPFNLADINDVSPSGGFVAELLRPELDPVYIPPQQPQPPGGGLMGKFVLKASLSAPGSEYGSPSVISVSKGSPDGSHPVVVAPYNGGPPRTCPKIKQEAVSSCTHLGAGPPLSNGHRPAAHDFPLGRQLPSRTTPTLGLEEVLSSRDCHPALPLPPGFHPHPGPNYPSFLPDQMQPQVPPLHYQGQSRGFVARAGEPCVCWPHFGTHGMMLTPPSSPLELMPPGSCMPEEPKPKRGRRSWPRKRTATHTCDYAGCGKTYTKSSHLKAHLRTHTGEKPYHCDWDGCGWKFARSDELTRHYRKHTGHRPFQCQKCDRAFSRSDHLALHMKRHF

Molecular target: Hemagglutinin (HA)-tagged Krüppel-like factor 4 (KLF4) (UniProt O43474)
Test: co-IP; HEK293T cells transfected with HA-KLF4 or its deletion mutants; lysates incubated with anti-HA-agarose; Western blot for DUB3; RIPA buffer, 4 °C for 4 h

B1: deubiquitinating enzyme 3 (DUB3), endogenous in HEK293T cells (enzyme, UniProt Q6R6M4 1-530)
chain: MEDDSLYLGGEWQFNHFSKLTSSRPDAAFAEIQRTSLPEKSPLSSEARVDLCDDLAPVARQLAPRKKLPLSSRRPAAVGAGLQNMGNTCYENASLQCLTYTPPLANYMLSREHSQTCQRPKCCMLCTMQAHITWALHSPGHVIQPSQALAAGFHRGKQEDAHEFLMFTVDAMKKACLPGHKQVDHHSKDTTLIHQIFGGCWRSQIKCLHCHGISDTFDPYLDIALDIQAAQSVKQALEQLVKPEELNGENAYHCGLCLQRAPASKTLTLHTSAKVLILVLKRFSDVTGNKLAKNVQYPECLDMQPYMSQQNTGPLVYVLYAVLVHAGWSCHDGHYFSYVKAQEGQWYKMDDAKVTACSITSVLSQQAYVLFYIQKSEWERHSESVSRGREPRALGAEDTDRRATQGELKRDHPCLQAPELDERLVERATQESTLDHWKFPQEQNKTKPEFNVRKVEGTLPPNVLVIHQSKYKCGMKNHHPEQQSSLLNLSSTTRTDQESVNTGTLASLQGRTRRSKGKNKHSKRALLVCQ
B1 was tested, and the binding was “binds”.
